Data published in patent US20120065365A1, “Stable Radiopharmaceutical Compositions and Methods for Their Preparation” (BRACCO IMAGING S.P.A., priority 2003, published 2012).

Format: physicochemical
Conditions: ^177Lu-C converted [reduced] to ^177Lu-B, 20 mg/ml reagent solution (2% ME) in citrate buffer, room temperature

SMILES: O[C@H](CS)[C@H](O)CS (racemic) [DL-Dithiothreitol]
- % Conversion in 1 day: 14.1%
- % Conversion in 3 days: 18.9%

SMILES: CSCC[C@H](N)C(=O)O [L-Methionine]
- % Conversion in 1 day: 0%
- % Conversion in 3 days: 0%

SMILES: C[Se]CC[C@H](N)C(=O)O [L-Selenomethionine]
- % Conversion in 1 day: 0%
- % Conversion in 3 days: 0%

SMILES: N[C@@H](CS)C(=O)O [L-cysteine, L-cysteine hydrochloride monohydrate]
- % Conversion in 1 day: 5.6%
- % Conversion in 3 days: 12.8%

SMILES: OCCS [ME, Mercaptoethanol]
- % Conversion in 1 day: 9.7%
- % Conversion in 3 days: 17.1%

Structures can show the parent of a compound that is named as a salt.
